# The other results are listed elsewhere or left out.
# What was measured:
# Assay in all cases: glycan array binding signal (z-score within array); higher = stronger binding
# Settings in all cases: glycan notation: IUPAC condensed, linker removed; mutation: Q318A
# [1] = target: Neu5Ac(a2-6)GlcNAc(b1-4)GlcNAc(b1-4)GlcNAc
# Procedure, shortened: (§1)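 Arrays were curated from the Consortium for Functional Glycomics database, 3228 in total, and kept only where the protein sequence was available. Binding is expressed as a within-array Z-score. This score was averaged across arrays of the same protein sequence at different concentrations or buffers and across linkers, and negative values can be read as non-binding.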
# Neu5Ac(a2-8)Neu5Ac = target: Neu5Ac(a2-8)Neu5Ac
# Procedure, shortened: as §1
# [2] = target: Neu5Ac(a2-8)Neu5Ac(a2-3)Gal(b1-3)GalNAc(b1-4)[Neu5Ac(a2-3)]Gal(b1-4)Glc
# Procedure, shortened: as §1
# [3] = target: Neu5Ac(a2-8)Neu5Ac(a2-3)Gal(b1-3)GalNAc(b1-4)[Neu5Ac(a2-8)Neu5Ac(a2-3)]Gal(b1-4)Glc
# Procedure, shortened: as §1
# [4] = target: Neu5Ac(a2-8)Neu5Ac(a2-3)Gal(b1-4)Glc
# Procedure, shortened: as §1
# [5] = target: Neu5Ac(a2-8)Neu5Ac(a2-3)Gal(b1-4)GlcNAc
# Procedure, shortened: as §1
# [6] = target: Neu5Ac(a2-8)Neu5Ac(a2-3)[Gal(b1-3)GalNAc(b1-4)]Gal(b1-4)Glc
# Procedure, shortened: as §1
# [7] = target: Neu5Ac(a2-8)Neu5Ac(a2-3)[GalNAc(b1-4)]Gal(b1-4)Glc
# Procedure, shortened: as §1
# [8] = target: Neu5Ac(a2-8)Neu5Ac(a2-8)Neu5Ac
# Procedure, shortened: as §1
# [9] = target: Neu5Ac(a2-8)Neu5Ac(a2-8)Neu5Ac(a2-3)Gal(b1-4)Glc
# Procedure, shortened: as §1
# [10] = target: Neu5Ac(a2-8)Neu5Ac(a2-8)Neu5Ac(a2-3)[Gal(b1-3)GalNAc(b1-4)]Gal(b1-4)Glc
# Procedure, shortened: as §1
# [11] = target: Neu5Ac(a2-8)Neu5Ac(a2-8)Neu5Ac(a2-3)[GalNAc(b1-4)]Gal(b1-4)Glc
# Procedure, shortened: as §1
# [12] = target: Neu5Ac(a2-8)Neu5Ac(a2-8)Neu5Ac(a2-8)Neu5Ac(a2-3)[GalNAc(b1-4)]Gal(b1-4)Glc
# Procedure, shortened: as §1
# [13] = target: Neu5Ac(a2-8)Neu5Gc(a2-3)Gal(b1-4)GlcNAc
# Procedure, shortened: as §1
# [14] = target: Neu5Ac(b2-6)Gal(b1-4)GlcNAc
# Procedure, shortened: as §1
# Neu5Ac(b2-6)GalNAc = target: Neu5Ac(b2-6)GalNAc
# Procedure, shortened: as §1
# [15] = target: Neu5Ac9Ac(a2-3)Gal(b1-3)GlcNAc
# Procedure, shortened: as §1
# [16] = target: Neu5Ac9Ac(a2-3)Gal(b1-4)GlcNAc
# Procedure, shortened: as §1
# [17] = target: Neu5Ac9Ac(a2-6)Gal(b1-4)GlcNAc
# Procedure, shortened: as §1
# [18] = target: Neu5Gc(a2-3)Gal(b1-3)GlcNAc
# Procedure, shortened: as §1
# [19] = target: Neu5Gc(a2-3)Gal(b1-3)[Fuc(a1-4)]GlcNAc
# Procedure, shortened: as §1
# Neu5Gc(a2-3)Gal(b1-4)Glc = target: Neu5Gc(a2-3)Gal(b1-4)Glc
# Procedure, shortened: as §1
# [20] = target: Neu5Gc(a2-3)Gal(b1-4)GlcNAc
# Procedure, shortened: as §1
# [21] = target: Neu5Gc(a2-3)Gal(b1-4)GlcNAc(b1-3)Gal(b1-4)GlcNAc(b1-2)Man(a1-3)[Neu5Gc(a2-3)Gal(b1-4)GlcNAc(b1-3)Gal(b1-4)GlcNAc(b1-2)Man(a1-6)]Man(b1-4)GlcNAc(b1-4)GlcNAc
# Procedure, shortened: as §1
# [22] = target: Neu5Gc(a2-3)Gal(b1-4)[Fuc(a1-3)]GlcNAc
# Procedure, shortened: as §1
# [23] = target: Neu5Gc(a2-6)Gal(b1-4)GlcNAc
# Procedure, shortened: as §1
# Neu5Gc(a2-6)GalNAc = target: Neu5Gc(a2-6)GalNAc
# Procedure, shortened: as §1
# [24] = target: Neu5Gc(a2-8)Neu5Ac(a2-3)Gal(b1-4)GlcNAc
# Procedure, shortened: as §1
# [25] = target: Neu5Gc(a2-8)Neu5Gc(a2-3)Gal(b1-4)GlcNAc
# Procedure, shortened: as §1
# [26] = target: Neu5Gc(a2-8)Neu5Gc(a2-3)Gal(b1-4)GlcNAc(b1-3)Gal(b1-4)GlcNAc
# Procedure, shortened: as §1
# [27] = target: Neu5Gc(a2-8)Neu5Gc(a2-6)Gal(b1-4)GlcNAc
# Procedure, shortened: as §1
# [28] = target: Neu5Gc(b2-6)Gal(b1-4)GlcNAc
# Procedure, shortened: as §1
binder,measurement,setting,value
"SUN4 (Saccharomyces cerevisiae), P53616 (protein) MGSSHHHHHHSSGLVPRGSHNGSIYGDLADFSGPYEKFEDGTIPCGQFPSGQGVIPISWLDEGGWSGVENTDTSTGGSCKEGSYCSYACQPGMSKTQWPSDQPSDGRSIGGLLCKDGYLYRSNTDTDYLCEWGVDAAYVVSELSNDVAICRTDYPGTENMVIPTYVQAGDSLPLTVVDQDTYYTWQGLKTSAAYYVNNAGISVEDACVWGSSSSGVGNWAPLNFGAGSSDGVAYLSLIPNPNNGNALNFNVKIVAADDSSTVNGECIYENGSFSGGSDGCTVSVTAGKAKFVLYN",glycan array binding signal (z-score),[1],-0.241
same,glycan array binding signal (z-score),Neu5Ac(a2-8)Neu5Ac,0.539
same,glycan array binding signal (z-score),[2],0.191
same,glycan array binding signal (z-score),[3],0.136
same,glycan array binding signal (z-score),[4],-0.702
same,glycan array binding signal (z-score),[5],-0.159
same,glycan array binding signal (z-score),[6],0.466
same,glycan array binding signal (z-score),[7],0.84
same,glycan array binding signal (z-score),[8],0.044
same,glycan array binding signal (z-score),[9],-0.895
same,glycan array binding signal (z-score),[10],0.765
same,glycan array binding signal (z-score),[11],0.477
same,glycan array binding signal (z-score),[12],0.81
same,glycan array binding signal (z-score),[13],-0.302
same,glycan array binding signal (z-score),[14],0.374
same,glycan array binding signal (z-score),Neu5Ac(b2-6)GalNAc,-0.678
same,glycan array binding signal (z-score),[15],-0.293
same,glycan array binding signal (z-score),[16],-0.725
same,glycan array binding signal (z-score),[17],-0.217
same,glycan array binding signal (z-score),[18],-0.339
same,glycan array binding signal (z-score),[19],1.56
same,glycan array binding signal (z-score),Neu5Gc(a2-3)Gal(b1-4)Glc,0.42
same,glycan array binding signal (z-score),[20],1.32
same,glycan array binding signal (z-score),[21],0.246
same,glycan array binding signal (z-score),[22],-0.13
same,glycan array binding signal (z-score),[23],-0.333
same,glycan array binding signal (z-score),Neu5Gc(a2-6)GalNAc,-0.69
same,glycan array binding signal (z-score),[24],-0.256
same,glycan array binding signal (z-score),[25],-0.635
same,glycan array binding signal (z-score),[26],-0.729
same,glycan array binding signal (z-score),[27],-0.257
same,glycan array binding signal (z-score),[28],-0.461

# Pulled one by one from the list above, three records:
binder,measurement,setting,value
"SUN4 (Saccharomyces cerevisiae), P53616 (protein) MGSSHHHHHHSSGLVPRGSHNGSIYGDLADFSGPYEKFEDGTIPCGQFPSGQGVIPISWLDEGGWSGVENTDTSTGGSCKEGSYCSYACQPGMSKTQWPSDQPSDGRSIGGLLCKDGYLYRSNTDTDYLCEWGVDAAYVVSELSNDVAICRTDYPGTENMVIPTYVQAGDSLPLTVVDQDTYYTWQGLKTSAAYYVNNAGISVEDACVWGSSSSGVGNWAPLNFGAGSSDGVAYLSLIPNPNNGNALNFNVKIVAADDSSTVNGECIYENGSFSGGSDGCTVSVTAGKAKFVLYN",glycan array binding signal (z-score),[7],0.84
same,glycan array binding signal (z-score),[12],0.81
same,glycan array binding signal (z-score),[26],-0.729

# Source: the supplement of paper PMC8728848
